Measured values: PubChem BioAssay AID687031 (Broad Institute, 2013)
In all, about 1,400 compounds went through this assay and about 50 (4%) were called active.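 Rule for the calls: active = fitted curve reaches 30% CPE protection at or below the top valid dose, with every test run called active; inconclusive = test runs disagree, some active and some not; inactive = every test run inactive, including effects in the wrong direction.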 Some of the results follow. Results with a measured potency or affinity are listed apart.

assay: antiviral rescue of DENV2-infected BHK-21 cells – cell-based, ATP luminescence, cherry-pick, dose response (AID 687031); conditions: BHK-21 DENV2 CPE protection, 5 d; at 19.5 µM (top of the series) unless noted;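 note: 0% = infected DMSO wells and 100% = uninfected cell wells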

Q: With `CC(NC(=O)CN1CCCC1)c1ccccc1` (stereo unspecified) as the molecule, how does the CPE protection (higher = active) read?
A: inactive: -5.17%

Q: With `C[C@@H]1CN([C@H](C)CO)C(=O)c2cc(NC(=O)NC3CCCCC3)ccc2O[C@@H](C)CCCCO[C@H]1CN(C)C(=O)Nc1ccc2c(c1)OCO2` as the molecule, how does the CPE protection (higher = active) read?
A: inactive: 0.224%

Q: Which CPE protection (higher = active) does the source give for `CCCN(CC(=O)Nc1ccccc1C)C(=O)C1CCN(S(=O)(=O)c2ccc(C)c(C)c2)CC1` here?
A: inactive: 6.3%

Q: Which CPE protection (higher = active) does the source give for `O=C1c2ccccc2/C(=C\c2ccc(Br)nc2)N1c1ccccc1` here?
A: inactive: -9.39%

Q: Which CPE protection (higher = active) does the source give for `C[C@@H]1CN([C@@H](C)CO)C(=O)c2cc(NS(=O)(=O)c3ccc(Cl)cc3)ccc2O[C@@H](C)CCCCO[C@H]1CN(C)CC1CC1` here?
A: inactive: 6.24%

Q: For `COc1cccc(NC(=O)CCN2C(=O)C3CC=CCC3C2=O)c1` (stereo unspecified), which CPE protection (higher = active) is on record?
A: inactive: 11.4%

Q: Which CPE protection (higher = active) does the source give for `CC(=O)NC(c1cc(Cl)c2cccnc2c1O)C(C)C` (stereo unspecified) here?
A: inactive: -28.1%

Q: With `COc1ccccc1NC(=O)Nc1nc(CC(=O)N2CCN(c3ccc(F)cc3)CC2)cs1` as the molecule, how does the CPE protection (higher = active) read?
A: inactive: -14.2%

Q: With `O=C1CN(C(=O)COC(=O)c2c(F)cccc2Cl)c2ccccc2N1` as the molecule, how does the CPE protection (higher = active) read?
A: inactive: -6.7%

Q: For `COC(=O)[C@@H]1[C@H](CCc2ccccc2)NC(=O)N(Cc2ccccc2)[C@@H]1C`, which CPE protection (higher = active) is on record?
A: inactive: -7.83%

Q: With `CS(=O)(=O)c1cccc(-c2nnc(NC(=O)c3ccc(S(=O)(=O)N4CCCC4)cc3)o2)c1` as the molecule, how does the CPE protection (higher = active) read?
A: inactive: 2.36%

Q: For `Cc1ccc(S(=O)(=O)Nc2ccc3c(c2)CC(=O)N([C@H](C)CO)C[C@H](C)[C@@H](CN(C)C(=O)Nc2cccc4ccccc24)O3)cc1`, which CPE protection (higher = active) is on record?
A: inactive: -6.07%

Q: For `Cc1ccc(-c2nc(N3CCN(C)CC3)c3ccccc3n2)cc1`, which CPE protection (higher = active) is on record?
A: inactive: 12.5%

Q: With `O=C1NC[C@@H](CCCCN2CCN(Cc3ccccc3)C(=O)C2=O)N(CCC2CCCCC2)C1=O` as the molecule, how does the CPE protection (higher = active) read?
A: inactive: 5.75%

Q: For `CCCCNC(=O)O[C@H]1C[C@@H]2CCN3C(=O)CCC[C@H]([C@H]1Cc1ccccc1)[C@H]23`, which CPE protection (higher = active) is on record?
A: inactive: -0.558%

Q: With `Cc1cc(C)c(OCCCNC2CCCC2)c(Br)c1` as the molecule, how does the CPE protection (higher = active) read?
A: inactive: -6.71%

Q: For `COc1ccc(C2=Nn3c(nnc3-c3ccccc3Cl)SC2)cc1OCC1CC1`, which CPE protection (higher = active) is on record?
A: inactive: -13.5%

Q: With `Cc1noc(C)c1NC(=O)Nc1cccc2c1O[C@@H](CN(C)S(=O)(=O)c1ccc(F)cc1)[C@@H](C)CN([C@@H](C)CO)C2=O` as the molecule, how does the CPE protection (higher = active) read?
A: inactive: -5.47%

Q: Which CPE protection (higher = active) does the source give for `COc1ccc(OC)c(-c2nnc3n2N=C(c2ccc(OC)c(OC)c2)CS3)c1` here?
A: inactive: -40.5%

Q: Which CPE protection (higher = active) does the source give for `Cn1cccc1C(=O)OCC(=O)NC(=O)c1ccc(Cl)cc1` here?
A: inactive: -8.69%

Q: Which CPE protection (higher = active) does the source give for `C[C@@H]1CN([C@@H](C)CO)C(=O)Cc2cc(NC(=O)CCCCCC(=O)Nc3ccccc3N)ccc2O[C@@H]1CN(C)Cc1ccc(C(F)(F)F)cc1` here?
A: inactive: -23.6% [at 21 µM]
